From PMC12670160, “A drug-repurposing screen of FDA- and EMA-approved drugs identifies two NF-κB inhibitors active against eumycetoma” (Journal of Antimicrobial Chemotherapy, 2025)
Structures can show the parent of a compound that is named as a salt. About 130 (2.5%) of roughly 5,300 compounds showed an effect of 50% or more. This is one part of the list. Peptide text beside a SMILES is read from it.

What follows are compounds tested on M. mycetomatis strain mm55. Settings: primary screen, metabolic activity vs growth control; 96 h, 2 µM; inhibitor.

Point of comparison: `N=c1ccn2c(n1)O[C@H]1[C@H](O)[C@@H](CO)O[C@H]12` [ONC0004679, cyclocytidine hcl], “% viability” value 111.1%. Against it:
- CC(C)Cc1ccc([C@H](C)C(=O)O)cc1 [ONC0003786, dexibuprofen] — lower, 58.31%
- CO/N=C(\C(=O)N[C@@H]1C(=O)N2C(C(=O)[O-])=C(C[n+]3ccn4ncccc43)CS[C@H]12)c1nsc(N)n1 [ONC0002043, cefozopran hydrochloride] — lower, 83.34%
- CS(=O)(=O)c1ccc([C@@H](O)[C@@H](CO)NC(=O)C(Cl)Cl)cc1 [ONC0002832, thiamphenicol] — lower, 90.05%
- Cc1cncc(CN2CCC(=C3c4ccc(Cl)cc4CCc4cccnc43)CC2)c1 [ONC0005226, rupatadine fumarate] — lower, 94.75%
- O=C1NCCNC1c1cccs1 (centres unmarked) [ONC0003813, tenilsetam] — lower, 64.62%
- O=c1[nH]cc(F)c(=O)[nH]1 [ONC0000498, fluorouracil] — higher, 116.2%
- NCCc1c[nH]c2ccc(O)cc12 [ONC0002500, serotonin] — lower, 72.63%
- CC(=O)Oc1c(C)cccc1C(=O)O [ONC0005475, cresopirine] — lower, 103%
- CCCCCCCC/C=C\CCCCCCCC(=O)NCc1ccc(O)c(OC)c1 [ONC0002688, olvanil] — lower, 63.91%
- CC(=O)Oc1cc(C(F)(F)F)ccc1C(=O)O [ONC0001220, triflusal] — lower, 89.02%
- CO[C@@]1(NC(=O)C2SC(=C(C(N)=O)C(=O)O)S2)C(=O)N2C(C(=O)O)=C(CSc3nnnn3C)CS[C@@H]21 (some centres unmarked) [ONC0000577, cefotetan] — lower, 93.81%
- CN(C)CCCN1c2ccccc2CCc2ccc(Cl)cc21 [ONC0005294, clomipramine hydrochloride] — lower, 58.67%
- O=C1CCC(c2ccccc2)(C2CCN(Cc3ccc(I)cc3)CC2)C(=O)N1 (centres unmarked) [ONC0001923, iododexetimide] — lower, 70.47%
- COC(=O)N1CCN(Cc2cccc(NC(=O)Nc3ccc(C)nc3)c2F)CC1 [ONC0005089, omecamtiv mecarbil ck1827452] — lower, 72.22%
- Cc1cc(C(C)(C)CC(C)(C)C)ccc1OCCOCC[N+](C)(C)Cc1ccccc1 [ONC0003144, methylbenzethonium chloride] — lower, 72.5%
- CC(=O)N[C@@H](CC(=O)O)C(=O)N[C@@H](CCC(=O)O)C(=O)O [ONC0002793, spaglumicacid] (Ac-Asp-Glu-OH) — higher, 131.8%
- O=C(Nc1c(-c2cccs2)nc2ccccn12)c1ccc(Cl)cc1 [ONC0000138, ds2806622] — lower, 88.21%
- NCC1CC(=O)N(Cc2ccccc2)C1 (centres unmarked) [ONC0003741, nebracetam] — lower, 99.4%
- c1cc(-c2sc(-c3ccncc3)c(-c3ccncc3)c2-c2ccncc2)ccn1 [ONC0001680, gant58] — lower, 60.63%
- O=C(Nc1cc(-c2ccccc2)nn1-c1ccccc1)c1ccc([N+](=O)[O-])cc1 [ONC0000214, vu29] — lower, 59.45%
- O=C1c2ccccc2C(=O)c2ccccc21 [ONC0002912, anthraquinone] — lower, 73.56%
- Nc1nccc(-c2c(-c3ccc(F)cc3)ncn2C2CCCCC2)n1 [ONC0001584, pf670462] — lower, 67.14%
- Nc1ccc(O)c(C(=O)O)c1 [ONC0002803, mesalamine lialda] — lower, 82.25%
- Clc1ccccc1CN1CCc2sccc2C1 [ONC0004074, ticlopidine hydrochloride] — higher, 116.9%
- CCC(=O)O[C@H](CC(=O)O)C[N+](C)(C)C [ONC0001066, levocarnitine propionate hydrochloride] — lower, 85.71%
- Ic1cc(-c2ccccc2)ncn1 [ONC0001546, 4iodo6phenylpyrimidine] — lower, 86.82%
- CCN(CC)CCOC(=O)C1(c2ccc([N+](=O)[O-])cc2)CCCC1 [ONC0003594, nitrocaramiphen] — lower, 88.48%
- COc1cc(Br)c(S(=O)(=O)Nc2ccc(Cl)c(O[C@@H]3CCN(C)C3)c2)cc1OC [ONC0002598, sb657510] — lower, 67.43%
- CN(C)c1nc(N)c(C(=O)Nc2cccnc2)nc1Cl [ONC0001616, acdpp] — lower, 104.7%
- COc1cc(N2CCN(C)CC2)ccc1Nc1nccc(-c2cn(C)c3cnccc23)n1 [ONC0000822, az191] — lower, 62.57%
- O=C(O)[C@H](O)[C@@H](O)[C@H](O)[C@H](O)CO [ONC0003285, sodium gluconate] — lower, 88%
- N#Cc1ccc(NCCNCC(=O)N2CCC[C@H]2C#N)nc1 [ONC0002659, nvpdpp728] — lower, 81.04%
- CCCCCCCC(=O)N[C@H](CN1CCCC1)[C@H](O)c1ccc2c(c1)OCCO2 [ONC0001065, eliglustat] — lower, 59.74%
- COCCN(C(=O)c1cc(OC)c(OC)c(OC)c1)c1nc(-c2ccccc2)cs1 [ONC0000165, eact] — lower, 82.31%
- O=C(O)CNC(=O)c1ccccc1 [ONC0002731, hippuric acid] — lower, 98.96%
- CN1c2c(nc(N)[nH]c2=O)NC[C@@H]1CNc1ccc(C(=O)N[C@@H](CCC(=O)O)C(=O)O)cc1 [ONC0002220, levomefolate calcium] — higher, 182.5%
- C#C[C@]1(O)CC[C@H]2[C@@H]3CCC4=CC(=O)CC[C@@H]4[C@H]3CC[C@@]21C [ONC0004517, norethindrone norethisterone] — lower, 61.47%
- CO[C@@]1(NC(=O)C(C(=O)O)c2ccc(O)cc2)C(=O)N2C(C(=O)O)=C(CSc3nnnn3C)CO[C@@H]21 (some centres unmarked) [ONC0000356, moxalactam disodium] — lower, 51.37%
- O=C(O)[C@@H](O)[C@@H](O)[C@H](O)[C@@H](O)C(=O)O [ONC0005415, glucaricacid] — higher, 117.4%
- COc1ccc(C(=O)N2CCN(c3ccc4c(c3)CCC(=O)N4)CC2)cc1OC [ONC0005287, vesnarinone] — lower, 108.3%
- C=CCc1cc(OC)c(O)c(C(=O)NCCO)c1 [ONC0004680, alibendol] — higher, 120.3%
- CCCC(C)NC(=O)c1ccc(Cl)c(Cl)c1 (centres unmarked) [ONC0000003, nsc405020] — higher, 134.9%
- COC1(C[S@@+]([O-])c2ccccc2)CCN(CCc2c[nH]c3ccc(F)cc23)CC1 [ONC0001454, gr159897] — lower, 55.31%
- Cc1c(C)c2c(c(C)c1O)CCC(C)(C)O2 [ONC0002146, apc100] — lower, 74.75%
- Nc1ccc(S(=O)(=O)Nc2ncccn2)cc1 [ONC0000536, sulfadiazine] — lower, 67.79%
- Cc1cc(C)cc(C(=O)OC2CC3CCC(C2)N3C)c1 (centres unmarked) [ONC0001330, tropanyl35dimethylbenzoate] — lower, 81.23%
- CC(=O)NCC(=O)N1[C@@H]2CC[C@H]1c1ccc(Nc3ncc(C(F)(F)F)c(NC4CCC4)n3)cc12 [ONC0001280, pf03814735] — lower, 83.62%
- COc1ccc([C@@H]2CNC(=O)C2)cc1OC1CCCC1 [ONC0001505, rolipramr] — lower, 84.43%
- CC(=O)NCCC(=O)N[C@@H](Cc1c[nH]cn1)C(=O)O [ONC0003372, nacetyl carnosine] — lower, 72.06%
- N[C@H]1CCN(O)C1=O [ONC0003125, ha966s] — lower, 73.5%
- CC(C)[C@H](C(=O)Nc1ccc(C(=O)NO)cc1)c1ccccc1 [ONC0005231, ar42 hdac42] — higher, 143.2%
- C#C[C@]1(OC(C)=O)CC[C@H]2[C@@H]3CCC4=C[C@@H](OC(C)=O)CC[C@@H]4[C@H]3CC[C@@]21C [ONC0003967, ethynodiol diacetate] — lower, 84.51%
- Cc1ccc([N+](=O)[O-])cc1O [ONC0003756, 2methyl5nitrophenol] — lower, 92.2%
- O=C(Nc1cccc(Nc2ncc(Br)c(NCCc3c[nH]cn3)n2)c1)N1CCCC1 [ONC0004896, bx912] — lower, 111%
- CC(=O)OCC1=C(C(=O)O)N2C(=O)[C@@H](NC(=O)CSC(=NC(C)C)NC(C)C)[C@H]2SC1 [ONC0003427, cefathiamidine] — lower, 77.15%
- CNC(=O)c1c(C)oc2cc(Oc3ncnc4cc(OC)c(OC)cc34)ccc12 [ONC0001267, fruquintinib] — lower, 109%
- N#Cc1ccc2[nH]c(O)c(-c3ccc(CN4CCOCC4)cn3)c2c1 [ONC0005123, azd1080] — lower, 87.22%
- Cc1ccc(C(=O)NCCCCCC(=O)Nc2ccccc2N)cc1 [ONC0005128, rg2833 rgfp109] — higher, 112.3%
- Oc1ccc(Nc2nc(-c3ccc(Cl)cc3)cs2)cc1 [ONC0001751, skiii] — lower, 85.39%
- COc1cc2ncnc(Nc3ccc(Cl)cc3F)c2cc1OC [ONC0001350, zm306416] — higher, 114.8%
- NS(=O)(=O)c1ccc(C(=O)O)cc1 [ONC0003914, carzenide] — lower, 66.64%
- C[C@@H]1CC[C@H]2[C@@H](C)C(=O)O[C@@H]3O[C@@]4(C)CC[C@@H]1[C@]32OO4 [ONC0003146, artemisinin] — lower, 80.92%
- CN(C)[C@@H]1C(=O)C(C(N)=O)C(=O)[C@@]2(O)C(=O)C3C(=O)c4c(O)cccc4[C@@](C)(O)[C@H]3[C@H](O)[C@@H]12 (some centres unmarked) [ONC0000529, oxytetracycline] — lower, 87.14%
- C=C[C@H]1C[N@@]2CC[C@H]1C[C@@H]2[C@@H](O)c1ccnc2ccc(OC)cc12 [ONC0003347, quinidine gluconate] — lower, 101.1%
